Assay results reported in paper PMC10223608 (Marine Drugs, 2023).

Assay: general procedure: solution-phase peptide synthesis; EDC·HCl/HOAt/DIPEA; DEPBT/DIPEA
Settings: coupling step

Substance | step yield (over 2 steps from 16) [% for 2 steps] | other results
(28R,29R)-Statine derivative-L-Ile-L-Ala-NMe-D-Phe-L-Pro-OMe | 77 | 
(28R,29S)-Statine derivative-L-Ile-D-Ala-NMe-D-Phe-L-Pro-OMe |  | step yield (over 2 steps from 15): 76% for 2 steps
(28R,29S)-Statine derivative-L-Ile-Gly-NMe-D-Phe-L-Pro-OMe |  | step yield (over 2 steps from 14): 81% for 2 steps
(28R,29S)-Statine derivative-L-Ile-L-Ala-NMe-D-Phe-L-Pro-OMe | 75 | 
(28S,29R)-Statine derivative-L-Ile-L-Ala-NMe-D-Phe-L-Pro-OMe | 75 | 
Boc-L-Ile-D-Ala-NMe-D-Phe-L-Pro-OMe |  | step yield (over 2 steps from 20): 76% for 2 steps
